The target in assay [1] is FLAG-Pat1b C-terminal construct (human). Kind of assay: co-IP; FLAG-tagged proteins in lysates of transfected HEK293 cells on M2 beads, western blotting of bound proteins; in some experiments cells co-transfected with control (beta-globin), SART3 or Lsm1 siRNA. A general note: Immunoblotting shows a protein as a band on a membrane.
The target of assay [2] is FLAG-Pat1b N-terminal construct (human). Described as above.

Results are given in words; binding and its absence hold for the method and conditions named. In cells and extracts the contact can be indirect. For some of these results: Binding can be weak; no strength is given.

B1: Lsm1 (protein, UniProt O15116 1-133)
chain: MNYMPGTASLIEDIDKKHLVLLRDGRTLIGFLRSIDQFANLVLHQTVERIHVGKKYGDIPRGIFVVRGENVVLLGEIDLEKESDTPLQQVSIEEILEEQRVEQQTKLEAEKLKVQALKDRGLSIPRADTLDEY
In the case of B1, in assay [1], the binding entry is “binds”.

B2: Lsm8 (protein, UniProt O95777 1-96)
chain: MTSALENYINRTVAVITSDGRMIVGTLKGFDQTINLILDESHERVFSSSQGVEQVVLGLYIVRGDNVAVIGEIDEETDSALDLGNIRAEPLNSVAH
As for B2, the binding result in assay [1] is “binds”.

B3: Lsm2 (protein, UniProt Q9Y333 1-95)
chain: MLFYSFFKSLVGKDVVVELKNDLSICGTLHSVDQYLNIKLTDISVTDPEKYPHMLSVKNCFIRGSVVRYVQLPADEVDTQLLQDAARKEALQQKQ
In the case of B3, the binding entry in assay [1] is listed as “binds”.

B4: SART3 (endogenous) (protein, UniProt Q15020 1-963)
chain: MATAAETSASEPEAESKAGPKADGEEDEVKAARTRRKVLSRAVAAATYKTMGPAWDQQEEGVSESDGDEYAMASSAESSPGEYEWEYDEEEEKNQLEIERLEEQLSINVYDYNCHVDLIRLLRLEGELTKVRMARQKMSEIFPLTEELWLEWLHDEISMAQDGLDREHVYDLFEKAVKDYICPNIWLEYGQYSVGGIGQKGGLEKVRSVFERALSSVGLHMTKGLALWEAYREFESAIVEAARLEKVHSLFRRQLAIPLYDMEATFAEYEEWSEDPIPESVIQNYNKALQQLEKYKPYEEALLQAEAPRLAEYQAYIDFEMKIGDPARIQLIFERALVENCLVPDLWIRYSQYLDRQLKVKDLVLSVHNRAIRNCPWTVALWSRYLLAMERHGVDHQVISVTFEKALNAGFIQATDYVEIWQAYLDYLRRRVDFKQDSSKELEELRAAFTRALEYLKQEVEERFNESGDPSCVIMQNWARIEARLCNNMQKARELWDSIMTRGNAKYANMWLEYYNLERAHGDTQHCRKALHRAVQCTSDYPEHVCEVLLTMERTEGSLEDWDIAVQKTETRLARVNEQRMKAAEKEAALVQQEEEKAEQRKRARAEKKALKKKKKIRGPEKRGADEDDEKEWGDDEEEQPSKRRRVENSIPAAGETQNVEVAAGPAGKCAAVDVEPPSKQKEKAASLKRDMPKVLHDSSKDSITVFVSNLPYSMQEPDTKLRPLFEACGEVVQIRPIFSNRGDFRGYCYVEFKEEKSALQALEMDRKSVEGRPMFVSPCVDKSKNPDFKVFRYSTSLEKHKLFISGLPFSCTKEELEEICKAHGTVKDLRLVTNRAGKPKGLAYVEYENESQASQAVMKMDGMTIKENIIKVAISNPPQRKVPEKPETRKAPGGPMLLPQTYGARGKGRTQLSLLPRALQRPSAAAPQAENGPAAAPAVAAPAATEAPKMSNADFAKLFLRK
With B4, the binding entry in assay [2] is reported as “no binding”.

The record behind these values is publication PMC5554784.
